The results are deposited in PubChem (AID504749; NCATS, 2011).

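Malaria parasite (P. falciparum) lines kept in red blood cells; parasite DNA is measured by SYBR Green fluorescence after lysis, 72 h after compound addition.
Each compound was titrated across a series from about 0.000037 to 29 µM.
The number is the fitted AC50, the concentration giving a half-maximal change in signal; a lower value means higher potency, whether the curve shows a decrease or an increase.
Calls follow the curve class and fit quality: every row here is inconclusive, covering signal-raising curves and weak, poorly fitted, partial or highest-dose-only inhibition curves.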

Values are in nM.
All entries here are filed as inconclusive.
Only part of the assay is shown, chiefly results filed as inconclusive.
A potency from a partial, single-point or poor curve is only a rough figure.
Some entries filed as inconclusive have a full curve.

SMILES: CNCCC=C1c2ccccc2CCc2ccccc21
condition: P93_24
Potency (nM): 5012
remark: inhibitor, partial curve

SMILES: CNCCC=C1c2ccccc2CCc2ccccc21
condition: PC15
Potency (nM): 12589
remark: inhibitor, partial curve, poor fit

SMILES: CNCCC=C1c2ccccc2CCc2ccccc21
condition: C2A
Potency (nM): 7080
remark: inhibitor, partial curve

SMILES: CNCCC=C1c2ccccc2CCc2ccccc21
condition: CP191
Potency (nM): 17782
remark: inhibitor, single point

SMILES: CNCCC=C1c2ccccc2CCc2ccccc21
condition: ATS189
Potency (nM): 2818
remark: inhibitor, full curve

SMILES: CNCCC=C1c2ccccc2CCc2ccccc21
condition: AS120
Potency (nM): 10000
remark: inhibitor, partial curve

SMILES: CNCCC=C1c2ccccc2CCc2ccccc21
condition: JCK
Potency (nM): 12589
remark: inhibitor, single point

SMILES: CNCCC=C1c2ccccc2CCc2ccccc21
condition: CP286
Potency (nM): 3548
remark: inhibitor, partial curve

SMILES: CNCCC=C1c2ccccc2CCc2ccccc21
condition: CP325
Potency (nM): 6012
remark: inhibitor, partial curve

SMILES: CNCCC=C1c2ccccc2CCc2ccccc21
condition: CP250
Potency (nM): 12589
remark: inhibitor, single point

SMILES: CNCCC=C1c2ccccc2CCc2ccccc21
condition: PC49
Potency (nM): 3548
remark: inhibitor, partial curve

SMILES: CNCCC=C1c2ccccc2CCc2ccccc21
condition: parasite line B
Potency (nM): 11220
remark: inhibitor, single point

SMILES: CNCCC=C1c2ccccc2CCc2ccccc21
condition: CP335
Potency (nM): 16944
remark: inhibitor, single point

SMILES: CNCCC=C1c2ccccc2CCc2ccccc21
condition: P94_40
Potency (nM): 5012
remark: inhibitor, partial curve, poor fit

SMILES: CNCCC=C1c2ccccc2CCc2ccccc21
condition: CP238
Potency (nM): 11220
remark: inhibitor, single point

SMILES: CNCCC=C1c2ccccc2CCc2ccccc21
condition: CP269
Potency (nM): 6746
remark: inhibitor, partial curve

SMILES: CNCCC=C1c2ccccc2CCc2ccccc21
condition: CP256
Potency (nM): 3162
remark: inhibitor, full curve

SMILES: CNCCC=C1c2ccccc2CCc2ccccc21
condition: CP247
Potency (nM): 7943
remark: inhibitor, partial curve

SMILES: CNCCC=C1c2ccccc2CCc2ccccc21
condition: TAB109
Potency (nM): 3548
remark: inhibitor, partial curve

SMILES: CNCCC=C1c2ccccc2CCc2ccccc21
condition: PC26
Potency (nM): 7569
remark: inhibitor, partial curve

SMILES: CNCCC=C1c2ccccc2CCc2ccccc21
condition: CP211
Potency (nM): 7569
remark: inhibitor, partial curve

Once more, the final 3:

{"smiles": "CNCCC=C1c2ccccc2CCc2ccccc21", "condition": "TAB109", "Potency (nM)": "3548", "remark": "inhibitor, partial curve"}
{"smiles": "CNCCC=C1c2ccccc2CCc2ccccc21", "condition": "PC26", "Potency (nM)": "7569", "remark": "inhibitor, partial curve"}
{"smiles": "CNCCC=C1c2ccccc2CCc2ccccc21", "condition": "CP211", "Potency (nM)": "7569", "remark": "inhibitor, partial curve"}